Laboratory results from publication PMC9110030.

By UniProt entry, the sequences of proteins in these tests, tags left out. Residues count along the entry.
UniProt P60615, 22-95: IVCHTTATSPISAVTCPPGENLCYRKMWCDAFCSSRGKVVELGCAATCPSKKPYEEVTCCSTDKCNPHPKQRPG

Target: α-Bungarotoxin (UniProt P60615)
Test: affinity purification with mass spectrometry; only the target purified

In the case of “Drosophila nAChR β1 subunit (from UniProt P04755 25-521) (receptor)”, the binding is reported as “no binding”.

No constants are given. Whether binding was seen depends on the method and setting. Binding seen in cells or lysates may run through a third protein. These calls come from enrichment with a bait or labelling near it, and not all partners need be listed. No binding means not detected with the bait.
